Results deposited as PubChem BioAssay AID1508597 (Cure First, 2020).
Shown is a random part of about 2,100 reagents. 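Calls flag viability under 80% in either arm, not effects specific to rucaparib; the reference for percent is not stated.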 A number with no mark means an inactive call. A reagent listed more than once was tested more than once; the source does not tell the runs apart. Not given: the 100% reference.

- Test: 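Survival screen with siRNA in ovarian cancer cells derived from patients, with or without rucaparib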 (primary screen)
- Cell system: human ovarian carcinoma lines grown from tumours: OCI-P5x (papillary serous) and OCI-C5x (clear cell)
- Reagents: siRNA pool against human genes, 1.25 pmol siRNA per well
- Timing: 72 h or 96 h, depending on the cell culture
- Treatment: rucaparib 20 µM (about IC30) or vehicle, present until read-out
- Detection: 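Luminescent ATP-based viability assay read 72 or 96 h after transfection, depending on culture, given as normalised percent viability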
- Scale: viability, normalised: higher = more viable cells remaining
- Call rule: 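a well counts as a hit if its normalised viability is under 80 percent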
- Calls: active = viability under 80%; inactive = viability 80% or more

no.	gene	rucaparib or vehicle	cell line	technical replicate	viability, normalised (%)
1	RBM10 (RNA binding motif protein 10)	Rucaparib	OCI-C5x (clear cell)	1	31.4 (active)
2	RBM10 (RNA binding motif protein 10)	Rucaparib	OCI-C5x (clear cell)	2	38.8 (active)
3	RBM10 (RNA binding motif protein 10)	Rucaparib	OCI-C5x (clear cell)	3	34.1 (active)
4	RBM10 (RNA binding motif protein 10)	Rucaparib	OCI-P5x (serous)	1	41.4 (active)
5	RBM10 (RNA binding motif protein 10)	Rucaparib	OCI-P5x (serous)	2	34.6 (active)
6	RBM10 (RNA binding motif protein 10)	Rucaparib	OCI-P5x (serous)	3	55.6 (active)
7	RBM10 (RNA binding motif protein 10)	Vehicle	OCI-C5x (clear cell)	1	56.1 (active)
8	RBM10 (RNA binding motif protein 10)	Vehicle	OCI-C5x (clear cell)	2	44.2 (active)
9	RBM10 (RNA binding motif protein 10)	Vehicle	OCI-C5x (clear cell)	3	38 (active)
10	RBM10 (RNA binding motif protein 10)	Vehicle	OCI-P5x (serous)	1	53.1 (active)
11	RBM10 (RNA binding motif protein 10)	Vehicle	OCI-P5x (serous)	2	60.2 (active)
12	RBM10 (RNA binding motif protein 10)	Vehicle	OCI-P5x (serous)	3	96.9
13	PDIK1L (PDLIM1 interacting kinase 1 like)	Rucaparib	OCI-C5x (clear cell)	1	56.8 (active)
14	PDIK1L (PDLIM1 interacting kinase 1 like)	Rucaparib	OCI-C5x (clear cell)	2	61.5 (active)
15	PDIK1L (PDLIM1 interacting kinase 1 like)	Rucaparib	OCI-C5x (clear cell)	3	57 (active)
16	PDIK1L (PDLIM1 interacting kinase 1 like)	Rucaparib	OCI-P5x (serous)	1	76.9 (active)
17	PDIK1L (PDLIM1 interacting kinase 1 like)	Rucaparib	OCI-P5x (serous)	2	85.2
18	PDIK1L (PDLIM1 interacting kinase 1 like)	Rucaparib	OCI-P5x (serous)	3	69.6 (active)
19	PDIK1L (PDLIM1 interacting kinase 1 like)	Vehicle	OCI-C5x (clear cell)	1	52 (active)
20	PDIK1L (PDLIM1 interacting kinase 1 like)	Vehicle	OCI-C5x (clear cell)	2	75.8 (active)
21	PDIK1L (PDLIM1 interacting kinase 1 like)	Vehicle	OCI-C5x (clear cell)	3	70.2 (active)
22	PDIK1L (PDLIM1 interacting kinase 1 like)	Vehicle	OCI-P5x (serous)	1	82.2
23	PDIK1L (PDLIM1 interacting kinase 1 like)	Vehicle	OCI-P5x (serous)	2	71.6 (active)
24	PDIK1L (PDLIM1 interacting kinase 1 like)	Vehicle	OCI-P5x (serous)	3	77.5 (active)

7 entries already listed, sorted by “viability, normalised (%)”, descending.
gene	rucaparib or vehicle	cell line	technical replicate	viability, normalised (%)
RBM10 (RNA binding motif protein 10)	Vehicle	OCI-P5x (serous)	3	96.9
PDIK1L (PDLIM1 interacting kinase 1 like)	Rucaparib	OCI-P5x (serous)	2	85.2
PDIK1L (PDLIM1 interacting kinase 1 like)	Rucaparib	OCI-P5x (serous)	1	76.9 (active)
PDIK1L (PDLIM1 interacting kinase 1 like)	Rucaparib	OCI-P5x (serous)	3	69.6 (active)
PDIK1L (PDLIM1 interacting kinase 1 like)	Rucaparib	OCI-C5x (clear cell)	2	61.5 (active)
PDIK1L (PDLIM1 interacting kinase 1 like)	Rucaparib	OCI-C5x (clear cell)	3	57 (active)
PDIK1L (PDLIM1 interacting kinase 1 like)	Rucaparib	OCI-C5x (clear cell)	1	56.8 (active)

The listing continues.
no.	gene	rucaparib or vehicle	cell line	technical replicate	viability, normalised (%)
25	CDK2 (cyclin dependent kinase 2)	Rucaparib	OCI-C5x (clear cell)	1	50.4 (active)
26	CDK2 (cyclin dependent kinase 2)	Rucaparib	OCI-C5x (clear cell)	1	57.3 (active)
27	CDK2 (cyclin dependent kinase 2)	Rucaparib	OCI-C5x (clear cell)	2	41.1 (active)
28	CDK2 (cyclin dependent kinase 2)	Rucaparib	OCI-C5x (clear cell)	2	63.2 (active)
29	CDK2 (cyclin dependent kinase 2)	Rucaparib	OCI-C5x (clear cell)	3	51.7 (active)
30	CDK2 (cyclin dependent kinase 2)	Rucaparib	OCI-C5x (clear cell)	3	51.3 (active)
31	CDK2 (cyclin dependent kinase 2)	Rucaparib	OCI-P5x (serous)	1	50.4 (active)
32	CDK2 (cyclin dependent kinase 2)	Rucaparib	OCI-P5x (serous)	1	98.4
33	CDK2 (cyclin dependent kinase 2)	Rucaparib	OCI-P5x (serous)	2	130
34	CDK2 (cyclin dependent kinase 2)	Rucaparib	OCI-P5x (serous)	2	62.8 (active)
35	CDK2 (cyclin dependent kinase 2)	Rucaparib	OCI-P5x (serous)	3	96.7
36	CDK2 (cyclin dependent kinase 2)	Rucaparib	OCI-P5x (serous)	3	58.4 (active)
37	CDK2 (cyclin dependent kinase 2)	Vehicle	OCI-C5x (clear cell)	1	60.5 (active)
38	CDK2 (cyclin dependent kinase 2)	Vehicle	OCI-C5x (clear cell)	1	49 (active)
39	CDK2 (cyclin dependent kinase 2)	Vehicle	OCI-C5x (clear cell)	2	51.9 (active)
40	CDK2 (cyclin dependent kinase 2)	Vehicle	OCI-C5x (clear cell)	2	38.3 (active)
41	CDK2 (cyclin dependent kinase 2)	Vehicle	OCI-C5x (clear cell)	3	52.6 (active)
42	CDK2 (cyclin dependent kinase 2)	Vehicle	OCI-C5x (clear cell)	3	41.4 (active)
43	CDK2 (cyclin dependent kinase 2)	Vehicle	OCI-P5x (serous)	1	53.1 (active)
44	CDK2 (cyclin dependent kinase 2)	Vehicle	OCI-P5x (serous)	1	93.1
45	CDK2 (cyclin dependent kinase 2)	Vehicle	OCI-P5x (serous)	2	66.8 (active)
46	CDK2 (cyclin dependent kinase 2)	Vehicle	OCI-P5x (serous)	2	86.6
47	CDK2 (cyclin dependent kinase 2)	Vehicle	OCI-P5x (serous)	3	60 (active)
48	CDK2 (cyclin dependent kinase 2)	Vehicle	OCI-P5x (serous)	3	83
49	STK4 (serine/threonine kinase 4)	Rucaparib	OCI-C5x (clear cell)	1	48.5 (active)
50	STK4 (serine/threonine kinase 4)	Rucaparib	OCI-C5x (clear cell)	2	41.5 (active)
51	STK4 (serine/threonine kinase 4)	Rucaparib	OCI-C5x (clear cell)	3	55.2 (active)
52	STK4 (serine/threonine kinase 4)	Rucaparib	OCI-P5x (serous)	1	59.1 (active)
53	STK4 (serine/threonine kinase 4)	Rucaparib	OCI-P5x (serous)	2	45.8 (active)
54	STK4 (serine/threonine kinase 4)	Rucaparib	OCI-P5x (serous)	3	72.3 (active)
55	STK4 (serine/threonine kinase 4)	Vehicle	OCI-C5x (clear cell)	1	52.1 (active)
56	STK4 (serine/threonine kinase 4)	Vehicle	OCI-C5x (clear cell)	2	59.8 (active)
57	STK4 (serine/threonine kinase 4)	Vehicle	OCI-C5x (clear cell)	3	73.5 (active)
58	STK4 (serine/threonine kinase 4)	Vehicle	OCI-P5x (serous)	1	63.1 (active)
59	STK4 (serine/threonine kinase 4)	Vehicle	OCI-P5x (serous)	2	65.9 (active)
60	STK4 (serine/threonine kinase 4)	Vehicle	OCI-P5x (serous)	3	78 (active)
